The record followed here is the supplement of paper PMC12889115.

The other results are listed elsewhere or left out. Values are raw readings; no control value is given beside them.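 In the initial screen, polymyxin B was used at a concentration that permeabilizes Salmonella's outer membrane but not its inner membrane. Maximum growth was set by DMSO wells with or without polymyxin B. Since plates varied, data were ranked per plate, and compounds giving the lowest OD600 advanced as hits.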

The test deals with Salmonella enterica serovar Typhimurium SL1344. Description: bacterial growth OD600 after 18 h with compound and polymyxin B; higher = more bacterial growth (less inhibition). The settings on record: 50 µM, Mueller-Hinton broth.

For the compound `O=C1N(CC2CCC2)CCCC1(O)CN1CCOCC1` (centres undefined), where the note is “polymyxin B 1 µg/mL”, the “bacterial growth OD600” value was found to be 0.9.

For the compound `OCC1(CCc2ccccc2)CCCN(C2CCN(Cc3ccccn3)CC2)C1` (centres undefined), the “bacterial growth OD600” value (polymyxin B 0.75 µg/mL) was 0.791.

Regarding `CO[C@H]1[C@H](NC(=O)c2ccncc2)c2ccccc2C12CCN(C(=O)CCC1CCCCC1)CC2`, the “bacterial growth OD600” value (polymyxin B 0.75 µg/mL) stood at 0.067.

Consider `Cc1c(C(C)NC(=O)/C=C/c2cccs2)cnn1-c1ccccn1` (centres undefined), for which the “bacterial growth OD600” value (polymyxin B 1 µg/mL) turned out to be 0.901.

In the case of `COC(=O)CCC(=O)N1CCCC(CCc2ccccc2C)C1` (centres undefined), for the setting “polymyxin B 0.75 µg/mL”, the “bacterial growth OD600” value came to 0.688.

In the case of `O=C1CCC(C(=O)N2CCCC2)CN1Cc1cccc(C(F)(F)F)c1` (centres undefined), where the note is “polymyxin B 1 µg/mL”, the “bacterial growth OD600” value was found to be 1.02.

For `COc1ccc(OC2CCN(C3CCCC3)CC2)c(C(=O)N(C)CC(C)C)c1`, where the note is “polymyxin B 1 µg/mL”, the “bacterial growth OD600” value was 0.957.

In the case of `COc1cccc(CC2(CCC(=O)NCc3cc(C(F)(F)F)ccc3F)CCC(=O)N2)c1` (centres undefined), the “bacterial growth OD600” value (polymyxin B 0.75 µg/mL) was found to be 0.794.

`C=Cc1ccc(C(=O)N2CCC3(CC2)c2ccccc2[C@@H](NC(=O)CC)[C@@H]3OCc2cccnc2)cc1`: for the setting “polymyxin B 0.75 µg/mL”, the “bacterial growth OD600” value came to 0.825.

Take `O=C(c1cc[n+]([O-])cc1)N1CCC(C2CCN(CCc3ccccc3)CC2)C1` (centres undefined): the “bacterial growth OD600” value (polymyxin B 1 µg/mL) came to 0.967.

`COCC1CCCCN1C(=O)c1cc(OC)ccc1OC1CCN(C(=O)C2CC2)CC1` (centres undefined): the “bacterial growth OD600” value (polymyxin B 1 µg/mL) came out at 0.889.

On to `C=CCOc1cccc(C(=O)N(C)C2CCCN(Cc3ccccc3F)C2)c1` (centres undefined), for which the “bacterial growth OD600” value (polymyxin B 1 µg/mL) was found to be 0.797.

Consider `Cc1nc(C)c(CN2CCC(C3CCN(Cc4cccnc4)CC3)C2)nc1C` (centres undefined), for which, where the note is “polymyxin B 0.75 µg/mL”, the “bacterial growth OD600” value was 0.726.

For the compound `CN(Cc1cnn(C)c1)C(=O)c1csc2nc(-c3ccc(C(F)(F)F)cc3)cn12`, the “bacterial growth OD600” value (polymyxin B 1 µg/mL) stood at 0.754.

Take `O=C(CCC1CCN(C(=O)c2cccnc2)CC1)Nc1ccc(F)c(Cl)c1`: where the note is “polymyxin B 1 µg/mL”, the “bacterial growth OD600” value was 1.03.

As for `CCO[C@H]1[C@H](NC(=O)c2cccnc2)c2ccccc2C12CCN(C(=O)c1cnn(C(C)C)c1)CC2`, the “bacterial growth OD600” value (polymyxin B 0.75 µg/mL) was 0.843.

As for `CC(=O)N1CCC(N2CCCC(CCc3ccc(F)c(F)c3)C2)CC1` (centres undefined), the “bacterial growth OD600” value (polymyxin B 0.75 µg/mL) turned out to be 0.843.

Turning to `CCCCc1nc2cc(C(=O)NC(C)CCCC(C)(C)O)ccc2o1` (centres undefined), the “bacterial growth OD600” value (polymyxin B 1 µg/mL) was found to be 1.27.

Regarding `COc1ccccc1CCC(=O)Nc1cnn(CC(=O)NCc2ccc(-n3cccn3)cc2)c1`, where the note is “polymyxin B 0.75 µg/mL”, the “bacterial growth OD600” value is 0.773.
